This is an account of results in PubChem BioAssay AID322 (DTP/NCI, 2004).

SMILES strings stand for the structures. The list shows only some results of the screen, not a fair sample: it is rich in T/C values a quarter to a half above the control, in often repeated tests (any T/C) and in doses without a T/C. Other doses and runs of a compound stand elsewhere. T/C gives the treated animals as a percentage of the vehicle group. Some entries give survivors of the animals treated and no T/C: the source files T/C as zero there, which appears to mark a toxic dose or a test without result, not a measured value. Some survivor counts are full or nearly so, which does not show that the dose was tolerated: survival well below the control is almost never listed, so the zero probably covers shortened survival too. Survivors were counted at the toxicity check, usually on the fifth day, unless a day is given; later deaths do not show. Schedules are NCI's codes, read here as Q, the interval in days (D) or hours (H), X, the number of doses. Some doses were run more than once; the results are listed from low to high. Additions like (4×) count equal records among those shown. For survival time, this PubChem deposit counts one and a half times the control or more as active, and values a quarter to a half above the control carry no call in these data; other NCI protocols may use other cut-offs. Some T/C values are followed by the survivors on the day toxicity was checked, most often the fifth; where none is given, no animal had died by that day.

The test system of the experiment is CD2F1 mice, P388/ADR leukemia ip, median survival T/C. Briefly: NCI In Vivo Anticancer Drug Screen. Data for tumor model P388 Leukemia resistant to Adriamycin; NSC 123127, Developed at Scr 08 (intraperitoneal) in CD2F1 (CDF1) mice. The conditions noted are these: T/C endpoint: median survival time, higher T/C = longer survival. The procedure:
The antitumor activity of compounds was measured in mice bearing transplantable tumors. Survival or tumor size were measured and the results are expressed as the measurement made in the treated group (T) divided by the measurement made in the vehicle treated control group (C). The tumor model used in this assay is P388 Leukemia resistant to Adriamycin; NSC 123127, Developed at Scr 08 (intraperitoneal) in CD2F1 (CDF1) mice

For the molecule `CC(=O)N(C)c1ccc(Nc2cc(C)[nH]c3ccc4ncnc4c23)cc1`, the T/C (dose: 67.0 mg/kg/injection, schedule: Q01DX005 (ip), vehicle: saline) was 127 % of control.

On to `COc1ccc2[nH]c3ccc4cc[n+](CCN5CCC(C6CCN(CC[n+]7ccc8ccc9[nH]c%10ccc(OC)cc%10c9c8c7)CC6)CC5)cc4c3c2c1`, for which the T/C reads like this: (dose: 4.0 mg/kg/injection, schedule: Q01DX005 (ip), vehicle: water) 136 % of control; (dose: 8.0 mg/kg/injection, schedule: Q01DX005 (ip), vehicle: water) 135 % of control; (dose: 16.0 mg/kg/injection, schedule: Q01DX005 (ip), vehicle: water) 136 % of control; (dose: 32.0 mg/kg/injection, schedule: Q01DX005 (ip), vehicle: water) 135 % of control. The survivor count (dose: 64.0 mg/kg/injection, schedule: Q01DX005 (ip), vehicle: water) is 0 of 10.

On to `c1ccc(OCC2CO2)c(OCC2CO2)c1` (configuration not stated), for which the T/C reads like this: (dose: 15.0 mg/kg/injection, schedule: Q01DX005 (ip), vehicle: saline with Tween-80) 133 % of control; (dose: 60.0 mg/kg/injection, schedule: Q01DX005 (ip), vehicle: saline with Tween-80) 145 % of control. For the same molecule, the survivor count (dose: 480.0 mg/kg/injection, schedule: Q01DX005 (ip), vehicle: saline with Tween-80) is recorded as 3 of 10.

Take `CCN(CC)CCn1[nH]c2c3ccc(=O)cc3sc3c(NCCN)ccc1c32`: the survivor count (dose: 25.0 mg/kg/injection, schedule: Q01DX005 (ip), vehicle: water) is listed as 9 of 10.

As for `O=P1(N(CCCl)CCCl)NCCCO1` (configuration not stated), the T/C (dose: 6.25 mg/kg/injection, schedule: Q01DX005 (ip), vehicle: saline) is 140 and 144 % of control; the T/C (dose: 12.5 mg/kg/injection, schedule: Q01DX005 (ip), vehicle: saline) is 147 % of control.

For the molecule `COc1cccc2c1C(=O)c1c(O)c3c(c(O)c1C2=O)C[C@@](O)(C(=O)CO)C[C@@H]3OC1CC(N2CCOCC2C#N)C(O)C(C)O1` (some centres not stated), the T/C (dose: 4.69 micrograms/kg/injection, schedule: Q04DX003 (ip), vehicle: saline with Tween-80) is 144 % of control. Moreover, the survivor count by setting is: (dose: 37.5 micrograms/kg/injection, schedule: Q04DX003 (ip), vehicle: saline with Tween-80) 5 of 6; (dose: 50.0 micrograms/kg/injection, schedule: Q04DX003 (iv), vehicle: saline + alcohol) 10 of 10; (dose: 75.0 micrograms/kg/injection, schedule: Q04DX003 (ip), vehicle: saline with Tween-80) 1 of 6 and 2 of 6; (dose: 75.0 micrograms/kg/injection, schedule: Q04DX003 (iv), vehicle: saline + alcohol) 10 of 10; (dose: 150.0 micrograms/kg/injection, schedule: Q04DX003 (ip), vehicle: saline with Tween-80) 0 of 6.

In the case of `CC[C@]1(O)C[C@H]2CN(CCc3c([nH]c4ccccc34)[C@@](C(=O)OC)(c3cc4c(cc3OC)N(C=O)[C@H]3[C@@](O)(C(=O)OC)[C@H](OC(C)=O)[C@]5(CC)C=CCN6CC[C@]43[C@@H]65)C2)C1`, the T/C (dose: 1.0 mg/kg/injection, schedule: Q04DX003 (ip), vehicle: saline, evaluated on day 20) was 100 % of control; the T/C (dose: 1.0 mg/kg/injection, schedule: Q04DX003 (ip), vehicle: saline, evaluated on day 27) is 102 % of control; the T/C (dose: 1.0 mg/kg/injection, schedule: Q04DX003 (ip), vehicle: saline, evaluated on day 30) is 86 (2×), 89 (2×), 90 (3×), 92 (2×), 93 (4×), 94 (2×), 95 (5×), 96, 97 (9×), 98 (6×), 98 [9 of 10 alive], 99 (2×), 100 (4×), 101 (2×), 102 (2×), 104, 105, 106 (2×), 111 % of control; the T/C (dose: 1.0 mg/kg/injection, schedule: Q04DX003 (ip), vehicle: saline, evaluated on day 45) is 95, 97 (2×), 99, 102, 103, 108 % of control; the T/C (dose: 1.0 mg/kg/injection, schedule: Q04DX003 (ip), vehicle: saline, evaluated on day 56) was 99 % of control; the T/C (dose: 1.0 mg/kg/injection, schedule: Q04DX003 (ip), vehicle: saline, evaluated on day 60) is 102 and 105 % of control. Besides, the T/C is 90 and 101 % of control (dose: 1.5 mg/kg/injection, schedule: Q04DX003 (ip), vehicle: saline, evaluated on day 20); 86 % of control (dose: 1.5 mg/kg/injection, schedule: Q04DX003 (ip), vehicle: saline, evaluated on day 23); 102 % of control (dose: 1.5 mg/kg/injection, schedule: Q04DX003 (ip), vehicle: saline, evaluated on day 27); 87 (2×), 88 (2×), 89 (2×), 90, 90 [9 of 10 alive] (2×), 91, 92, 93 (7×), 93 [9 of 10 alive], 94 (7×), 95, 96 (5×), 96 [9 of 10 alive], 97 (5×), 98 (4×), 99, 100 (3×), 101 (2×), 102 (3×), 103, 106 % of control (dose: 1.5 mg/kg/injection, schedule: Q04DX003 (ip), vehicle: saline, evaluated on day 30); 96, 97 (2×), 98 (2×), 99, 100, 102 % of control (dose: 1.5 mg/kg/injection, schedule: Q04DX003 (ip), vehicle: saline, evaluated on day 45); 98 % of control (dose: 1.5 mg/kg/injection, schedule: Q04DX003 (ip), vehicle: saline, evaluated on day 56). For the same molecule, the T/C is, setting by setting: (dose: 1.5 mg/kg/injection, schedule: Q04DX003 (ip), vehicle: saline, evaluated on day 60) 101 and 104 % of control; (dose: 2.0 mg/kg/injection, schedule: Q04DX003 (ip), vehicle: saline, evaluated on day 20) 100 % of control; (dose: 2.0 mg/kg/injection, schedule: Q04DX003 (ip), vehicle: saline, evaluated on day 27) 102 % of control; (dose: 2.0 mg/kg/injection, schedule: Q04DX003 (ip), vehicle: saline, evaluated on day 30) 86, 87 (2×), 88 (4×), 90 (3×), 91 (2×), 92, 92 [8 of 10 alive], 93 (2×), 93 [7 of 8 alive], 94 (4×), 95 (2×), 96 (4×), 96 [9 of 10 alive], 97 (5×), 98 (7×), 100 (3×), 101 (5×), 102 % of control [8 of 10 alive]; (dose: 2.0 mg/kg/injection, schedule: Q04DX003 (ip), vehicle: saline, evaluated on day 45) 96 (2×), 97, 98 (2×), 102 (2×), 107 % of control [9 of 10 alive]; (dose: 2.0 mg/kg/injection, schedule: Q04DX003 (ip), vehicle: saline, evaluated on day 56) 91 % of control. For the same molecule, the T/C runs as follows: (dose: 2.0 mg/kg/injection, schedule: Q04DX003 (ip), vehicle: saline, evaluated on day 60) 101 and 106 % of control; (dose: 3.0 mg/kg/injection, schedule: Q04DX003 (ip), vehicle: saline, evaluated on day 27) 103 % of control; (dose: 3.0 mg/kg/injection, schedule: Q04DX003 (ip), vehicle: saline, evaluated on day 30) 86, 87 (4×), 89, 89 [9 of 10 alive] (2×), 90, 90 [9 of 10 alive], 91, 91 [7 of 10 alive], 92 (5×), 92 [9 of 10 alive], 93 (2×), 94, 95, 96 (8×), 97, 98 (3×), 99 (2×), 100 (2×), 102, 106 % of control (2×); (dose: 3.0 mg/kg/injection, schedule: Q04DX003 (ip), vehicle: saline, evaluated on day 45) 92 [8 of 10 alive], 96 (2×), 98 (2×), 100, 101, 104 % of control; (dose: 3.0 mg/kg/injection, schedule: Q04DX003 (ip), vehicle: saline, evaluated on day 56) 92 % of control; (dose: 3.0 mg/kg/injection, schedule: Q04DX003 (ip), vehicle: saline, evaluated on day 60) 101 and 104 % of control. Besides, the survivor count by setting is: (dose: 1.0 mg/kg/injection, schedule: Q04DX003 (ip), vehicle: saline) 10 of 10 (3×) and 6 of 6; (dose: 1.5 mg/kg/injection, schedule: Q04DX003 (ip), vehicle: saline) 10 of 10 and 6 of 6; (dose: 2.0 mg/kg/injection, schedule: Q04DX003 (ip), vehicle: saline) 9 of 10, 10 of 10 (3×), 6 of 6; (dose: 3.0 mg/kg/injection, schedule: Q04DX003 (ip), vehicle: saline) 6 of 10, 8 of 10, 9 of 10 (2×), 10 of 10 (3×), 6 of 6.

On to `COc1nc(C(Cl)(Cl)Cl)c(Cl)c(OC)c1Cl`, for which the T/C is 128 % of control (dose: 37.0 mg/kg/injection, schedule: Q01DX005 (ip), vehicle: Klucel (hydroxypropylcellulose) (HPC)); 130 % of control (dose: 50.0 mg/kg/injection, schedule: Q01DX005 (ip), vehicle: Klucel (hydroxypropylcellulose) (HPC)); 143 % of control (dose: 67.0 mg/kg/injection, schedule: Q01DX005 (ip), vehicle: Klucel (hydroxypropylcellulose) (HPC), evaluated on day 45); 126 % of control (dose: 67.0 mg/kg/injection, schedule: Q01DX005 (ip), vehicle: Klucel (hydroxypropylcellulose) (HPC), evaluated on day 46); 144 % of control (dose: 90.0 mg/kg/injection, schedule: Q01DX005 (ip), vehicle: Klucel (hydroxypropylcellulose) (HPC)); 141 % of control (dose: 120.0 mg/kg/injection, schedule: Q01DX005 (ip), vehicle: Klucel (hydroxypropylcellulose) (HPC)).
